# The supplement of paper PMC8728848
# The list shows a part of the results.
# B1: pullulanase (Streptococcus pyogenes), Q8KLP1 (protein)
# chain: MKKKVNQGSKRYQYLLKKWGIGFVIAATGTVMLGCIPSILTHQVAAKTIVGLARDEAQQGDGNAKSGDGFQSSSKEAKPVLDSSSANPASIAEHHLRMHFKTLPAGESLGSLGLWVWGDVDQPSKDWPNGAITMTKAKKDDYGYYLDVPLAAKHRQQVSYLINNKAGENLSKDQHIPLLTPKMNEVWIDENYHAHAYRPLKKGYLRINYHNQSGHYDNLAVWTFKDVKTPTTDWPNGLDLSHKGPYGAYVDVPLKEGANEIGFLILDKSKTGDAIKVQPKDYLFKELDNHTQVFVKDTDPKVYNNPYYIDQVSLKGAEQTTPNEIKAIFTTLDGLDEDAVKQNIKITDKAGKTVAIDELTLDKDKSVMTLKGDFKAQGAVYTVTFGEVSQVARQSWQLKDKLYAYDGELGATLAKDGSVDLALWSPSADSVKVVVYDKQDQTKVVGQADLTKSDKGVWRAHLTSDSVKGISDYTGYYYLYEITRGQEKVMVLDPYAKSLAAWNDATATDDIKTAKAAFIDPSKLGPTGLDFAKINNFKKREDAIIYEAHVRDFTSDKALEGKLTHPFGTFSAFVEQLDYLKDLGVTHVQLLPVLSYFYANELDKTRSTAYTSSDNNYNWGYDPQHYFALSGMYSANPNDPALRIAELKNLVNEIHKRGMGVIFDVVYNHTARTYLFEDLEPNYYHFMNADGTARESFGGGRLGTTHAMSRRILVDSITYLTREFKVDGFRFDMMGDHDAAAIEQAFKAAKAINPNTIMIGEGWRTYQGDEGKKEIAADQDWMKATNTVGVFSDDIRNTLKSGFPNEGTAAFITGGAKNLEGLFKTIKAQPSNFEADAPGDVVQYIAAHDNLTLHDVIAKSINKDPKVAEEEIHKRIRLGNTMILTAQGTAFIHSGQEYGRTKQLLNPDYKTKVSDDKVPNKATLIDAVAQYPYFIHDSYDSSDAVNHFDWAKATDSIAHPISNQTKAYTQGLIALRRSTDAFTKATKAEVDRDVTLITQAGQDGIQQEDLIMGYQTVASNGDRYAVFVNADNKTRKVVLPQAYRYLLGAQVLADAEQVGVTAIAKPKGVQFTKEGLTIDGLTALVLKVSSKTANPSQQKSQTDNHQTKTPDGSKDLDKSLMTRPKRAKTNQKLPKTGEAPSKGLLAAGVALLLLAISLLMKRQKD
# Experiments:
# Assay in all cases: glycan array binding signal (z-score within array); higher = stronger binding
# Details in all cases: glycan notation: IUPAC condensed, linker removed
# [1] = target: GlcNAc(b1-6)Gal(b1-4)GlcNAc
# Outline: (§1)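 Arrays were curated from the Consortium for Functional Glycomics database, 3228 in total, and kept only where the protein sequence was available. Binding is expressed as a within-array Z-score. This score was averaged across arrays of the same protein sequence at different concentrations or buffers and across linkers, and negative values can be read as non-binding.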
# GlcNAc(b1-6)GalNAc = target: GlcNAc(b1-6)GalNAc
# Outline: as §1
# GlcNAc3Prop(b1-4)GlcNAc = target: GlcNAc3Prop(b1-4)GlcNAc
# Outline: as §1
# [2] = target: GlcNAc6S(b1-3)Gal(b1-4)GlcNAc
# Outline: as §1
# Kdn(a2-3)Gal(b1-3)GalNAc = target: Kdn(a2-3)Gal(b1-3)GalNAc
# Outline: as §1
# Kdn(a2-3)Gal(b1-3)GlcNAc = target: Kdn(a2-3)Gal(b1-3)GlcNAc
# Outline: as §1
# Kdn(a2-3)Gal(b1-4)Glc = target: Kdn(a2-3)Gal(b1-4)Glc
# Outline: as §1
# Kdn(a2-3)Gal(b1-4)GlcNAc = target: Kdn(a2-3)Gal(b1-4)GlcNAc
# Outline: as §1
# [3] = target: Kdn(a2-3)Gal(b1-4)[Fuc(a1-3)]GlcNAc
# Outline: as §1
# Kdn(a2-6)Gal(b1-4)GlcNAc = target: Kdn(a2-6)Gal(b1-4)GlcNAc
# Outline: as §1
# [4] = target: Man(a1-2)Man(a1-2)Man(a1-3)Man
# Outline: as §1
# [5] = target: Man(a1-2)Man(a1-2)Man(a1-6)[Man(a1-3)]Man
# Outline: as §1
# Man(a1-2)Man(a1-3)Man = target: Man(a1-2)Man(a1-3)Man
# Outline: as §1
# [6] = target: Man(a1-2)Man(a1-3)[Man(a1-2)Man(a1-6)]Man
# Outline: as §1
# [7] = target: Man(a1-2)Man(a1-3)[Man(a1-2)Man(a1-6)]Man(a1-6)[Man(a1-2)Man(a1-2)Man(a1-3)]Man
# Outline: as §1
# [8] = target: Man(a1-2)Man(a1-3)[Man(a1-2)Man(a1-6)]Man(a1-6)[Man(a1-2)Man(a1-2)Man(a1-3)]Man(b1-4)GlcNAc(b1-4)GlcNAc
# Outline: as §1
# [9] = target: Man(a1-2)Man(a1-3)[Man(a1-6)]Man(a1-6)[Man(a1-2)Man(a1-3)]Man(b1-4)GlcNAc(b1-4)GlcNAc
# Outline: as §1
# [10] = target: Man(a1-2)Man(a1-6)[Man(a1-3)]Man(a1-6)[Man(a1-2)Man(a1-2)Man(a1-3)]Man
# Outline: as §1
# [11] = target: Man(a1-2)Man(a1-6)[Man(a1-3)]Man(a1-6)[Man(a1-2)Man(a1-2)Man(a1-3)]Man(b1-4)GlcNAc(b1-4)GlcNAc
# Outline: as §1
# Man(a1-3)[Man(a1-6)]Man = target: Man(a1-3)[Man(a1-6)]Man
# Outline: as §1
# [12] = target: Man(a1-3)[Man(a1-6)]Man(a1-6)[Man(a1-2)Man(a1-3)]Man(b1-4)GlcNAc(b1-4)GlcNAc
# Outline: as §1
# [13] = target: Man(a1-3)[Man(a1-6)]Man(a1-6)[Man(a1-3)]Man
# Outline: as §1
# [14] = target: Man(a1-3)[Man(a1-6)]Man(a1-6)[Man(a1-3)]Man(b1-4)GlcNAc(b1-4)GlcNAc
# Outline: as §1
# [15] = target: Man(a1-3)[Man(a1-6)]Man(b1-4)GlcNAc(b1-4)GlcNAc
# Outline: as §1
# Man(a1-6)Man = target: Man(a1-6)Man
# Outline: as §1
# Man(b1-4)GlcNAc = target: Man(b1-4)GlcNAc
# Outline: as §1
# Neu5Ac(a2-3)Gal = target: Neu5Ac(a2-3)Gal
# Outline: as §1
# [16] = target: Neu5Ac(a2-3)Gal(b1-3)GalNAc
# Outline: as §1
# [17] = target: Neu5Ac(a2-3)Gal(b1-3)GalNAc(b1-3)Gal(a1-4)Gal(b1-4)Glc
# Outline: as §1
# [18] = target: Neu5Ac(a2-3)Gal(b1-3)GalNAc(b1-4)[Neu5Ac(a2-3)]Gal(b1-4)Glc
# Outline: as §1
binder,measurement,setting,value
B1,glycan array binding signal (z-score),[1],-0.363
same,glycan array binding signal (z-score),GlcNAc(b1-6)GalNAc,-0.087
same,glycan array binding signal (z-score),GlcNAc3Prop(b1-4)GlcNAc,-1
same,glycan array binding signal (z-score),[2],1.42
same,glycan array binding signal (z-score),Kdn(a2-3)Gal(b1-3)GalNAc,1.42
same,glycan array binding signal (z-score),Kdn(a2-3)Gal(b1-3)GlcNAc,-0.039
same,glycan array binding signal (z-score),Kdn(a2-3)Gal(b1-4)Glc,-0.746
same,glycan array binding signal (z-score),Kdn(a2-3)Gal(b1-4)GlcNAc,0.846
same,glycan array binding signal (z-score),[3],-0.816
same,glycan array binding signal (z-score),Kdn(a2-6)Gal(b1-4)GlcNAc,-0.07
same,glycan array binding signal (z-score),[4],0.552
same,glycan array binding signal (z-score),[5],1
same,glycan array binding signal (z-score),Man(a1-2)Man(a1-3)Man,-0.328
same,glycan array binding signal (z-score),[6],0.757
same,glycan array binding signal (z-score),[7],0.204
same,glycan array binding signal (z-score),[8],0.012
same,glycan array binding signal (z-score),[9],1.31
same,glycan array binding signal (z-score),[10],0.731
same,glycan array binding signal (z-score),[11],0.634
same,glycan array binding signal (z-score),Man(a1-3)[Man(a1-6)]Man,-0.085
same,glycan array binding signal (z-score),[12],0.619
same,glycan array binding signal (z-score),[13],0.007
same,glycan array binding signal (z-score),[14],-0.36
same,glycan array binding signal (z-score),[15],0.448
same,glycan array binding signal (z-score),Man(a1-6)Man,0.668
same,glycan array binding signal (z-score),Man(b1-4)GlcNAc,0.398
same,glycan array binding signal (z-score),Neu5Ac(a2-3)Gal,-0.08
same,glycan array binding signal (z-score),[16],-0.607
same,glycan array binding signal (z-score),[17],0.881
same,glycan array binding signal (z-score),[18],-0.001

# Random excerpt: two records from the list, in no set order.
binder,measurement,setting,value
B1,glycan array binding signal (z-score),[18],-0.001
same,glycan array binding signal (z-score),[11],0.634
